# Values quoted from earlier work in patent publication US9815868B2, “Peptides binding to parallel-stranded G-quadruplexes” (NANYANG TECHNOLOGICAL UNIVERSITY, priority 2013, dated 2017).
# At least one structure is not confirmed: it was looked up by name or label, or the drawing left a doubt.
# Target: G-quadruplexes
# Conditions: literature statement; cited from earlier work
smiles,measurement,value
Cc1oc2nc1-c1nc(co1)-c1nc(co1)-c1nc(co1)-c1nc(co1)-c1nc(co1)C1=NC(CS1)c1nc-2c(C)o1 (stereo not shown) [Telomestatin],dissociation constant Kd,nanomolar range
